The values below come from PubChem BioAssay AID1347426 (Functional Genomics Laboratory (NCATS/FGL), 2020).

In all, about 31,000 sequences went through this assay and about 1,400 (4.5%) were called active.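 The calls were made as follows: active = median seed-adjusted z-score above 1 or below -1; inactive = the rest.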 This is one part of the list.

The nature of this test: Novel Modifiers of Survival Motor Neuron (SMN) Protein: Gene Identification via Genome-wide siRNA Screen.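 Also: luminescence tracks full-length SMN protein made from the SMN2 reporter.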 To be noted: HEK293T SMN2-luciferase reporter, siRNA knockdown, 72 h; actives lie on both sides. In a few lines: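 Each of three siRNAs per gene is reverse-transfected (1 pmol) into reporter HEK293T cells whose luciferase output tracks SMN protein level. After 72 h culture, ONE-Glo luminescence is control-normalized, log10-transformed and MAD-standardized; Common Seed Analysis deprioritizes seed-driven hits.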
A general note: Reporter assays use an easily measured gene product as a stand-in for the process of interest.
Take CAUCUUGAAGUCUUAUUAATT against MYOCD: the median seed-adjusted z-score was inactive: -0.121.
As to CUACUGAUGUUGUUGAUAATT against MAPK6, the median seed-adjusted z-score is inactive: -0.156.
In the case of GCAAUUCUGACGACAAUAUTT against KCTD10 it was inactive: -0.506; in that of UGGUUGCACCAGAUAAAGATT against DYNLRB1, inactive: -0.58; in that of AGCAGAAGAAGUUCAAAUATT against P2RX1, inactive: 0.908.
In the case of CCACGCGUCCUACUACAAATT against PSMD13 it was inactive: 0.58; in that of AGCUUUCAGUUGUCUCAGUTT against ZNF124, inactive: -0.487.
As for CCUUCUACAACACCAAGAATT against AGPAT2, the median seed-adjusted z-score is inactive: 0.38.
Turning to UUACUAUGGUUAUUUCAUATT against BDNF, the median seed-adjusted z-score is inactive: 0.
As to CAGACCAUGGACAACCAUATT against GSTM1, the median seed-adjusted z-score was inactive: -0.55.
Turning to GCUCAUACCUGGUACCUAUTT against FOXM1, the median seed-adjusted z-score is inactive: -0.399.
With CAAGAUGGUUGGUCACCAATT against CFHR4, the median seed-adjusted z-score is inactive: -0.0972.
The same measure for CUCUCCUCACGUGCAGUAATT against PRSS1: inactive: -0.0208.
Take GAAGGAUGCUUUCGAUAAATT against PDCD6IP: the median seed-adjusted z-score was inactive: 0.
For ACUCCUACAUGUACAUUCUTT against KCNE3, the median seed-adjusted z-score is active: -1.33.
With GGCUCAAUAUGGAGGAUUATT against NPR3, the median seed-adjusted z-score was inactive: -0.436.
The same measure for GCACCCACGUCAUCCCUAATT against GRIN1: inactive: -0.137; for CCUUCGACAUUGCUGAGGATT against MBD3: inactive: 0.708.
Consider CAAUCAUCUCAGUGGCGAATT against TIGD5, for which the median seed-adjusted z-score was inactive: 0.
Consider GCCUAUUUCUUACCAACUUTT against PECAM1, for which the median seed-adjusted z-score is inactive: 0.0717.
GAGUGCACACUUAAGGAGATT against TCF7: the median seed-adjusted z-score was inactive: -0.338.
As to GGGACAACAUCUUCCGAAATT against RRAGB, the median seed-adjusted z-score is inactive: 0.
For GUGUGAGGCUUUUACUUCUTT against LRTM1, the median seed-adjusted z-score is inactive: 0.492.
On to ACAUGGAUAUGGAAUCUGUTT against 8-Mar, for which the median seed-adjusted z-score was inactive: -0.106.
As for GCAAUGACAAAGUAUCUAATT against HSD17B3, the median seed-adjusted z-score was inactive: 0.734.
In the case of GGAUCGGGUUCUAAAGGAATT against HSPE1, the median seed-adjusted z-score is inactive: 0.0101.
With CCAGCAUUCUUGAUCGAGATT against DSG2, the median seed-adjusted z-score is inactive: -0.285.
In the case of GGAUUUGCCGAAUUAACAATT against RELB, the median seed-adjusted z-score was active: 1.16.
For the sequence GGCUACAAAUGGGUAAAGATT against ALG5, the median seed-adjusted z-score was inactive: 0.286.
In the case of AACUCAUUGUGAAUAAGAATT against GPR110 it was inactive: 0.0158; in that of GAGGUUUCAUCAUUGCGGATT against TGM4, inactive: -0.43; in that of GAAACGAUGAAAUAAGAUATT against PTGS1, inactive: 0.0458.
Consider GUUUAUGACGGGUACGAAATT against ECE2, for which the median seed-adjusted z-score was inactive: 0.794.
For GCUGUAUCCUCAUAGGAAATT against HES5, the median seed-adjusted z-score was inactive: -0.00853.
Take CAACAGUUGUACUACUGAATT against RIOK3: the median seed-adjusted z-score is inactive: 0.0267.
For the sequence AAACACUACUCGCACCAGATT against HES3, the median seed-adjusted z-score was inactive: 0.284.
As for GAUACGCCCUUAUAAUGCATT against ZBTB11, the median seed-adjusted z-score was inactive: -0.105.
For GCUUCGAAUUCACAAGUGUTT against SULF1, the median seed-adjusted z-score is inactive: -0.128.
Turning to GGACAUGCUUCACAAUCGATT against MYH15, the median seed-adjusted z-score is inactive: -0.939.
For the sequence CCAUGGAUCACAACCGGAATT against AKAP8L, the median seed-adjusted z-score was inactive: -0.334.
As to GAUGCUGACUUAGAAGAAATT against RFPL4B, the median seed-adjusted z-score is inactive: 0.92.
Take CCAUCAAGGUCCAACCAGUTT against FREM3: the median seed-adjusted z-score is inactive: -0.565.
With GACAGGCCUUGGUCAAAAATT against CCND3, the median seed-adjusted z-score is inactive: -0.965.
For the sequence GGACUGAACCUGCAUACCATT against ARL3, the median seed-adjusted z-score was inactive: 0.551.
On to GGAUACUGGGUAGAAAAUATT against ATG4B, for which the median seed-adjusted z-score was inactive: -0.703.
On to GCAUUUCGUGGGAUGGUCUTT against PEBP1, for which the median seed-adjusted z-score is inactive: 0.641.
As for CCUGAUACGUGACAAAGCATT against KLRB1, the median seed-adjusted z-score is inactive: -0.44.
Regarding CCCUUGGUAUGGUACGCUUTT against SERPINB12, the median seed-adjusted z-score is inactive: -0.525.
Take CAGUUAAAGGUCAAGAUAATT against PI3: the median seed-adjusted z-score is inactive: 0.493.
As for UCCUUUUUGUGAUUUCUGUTT against UBE2C, the median seed-adjusted z-score was inactive: 0.
With CAAGACUAUUUGUCUUUGATT against DHRS1, the median seed-adjusted z-score is inactive: 0.
In the case of CCAUCGGAGUGAUUGCCUATT against CAMK1D, the median seed-adjusted z-score was inactive: -0.0629.
In the case of GGAUCAACAGUGUCAUGGATT against MYO1G it was inactive: -0.907; in that of GAAGAUCGCUUAAAGGAGATT against MPP3, inactive: 0.
In the case of GCUAUGAGGUUAUCAAGAATT against UGT2A1 it was inactive: 0.213.
For the sequence GGCACUUACUUGUAAUGCUTT against LGR5, the median seed-adjusted z-score is inactive: 0.
The same measure for GACCUUGUAUUGAAGUUAATT against ACTG1: inactive: -0.227; for GGAUCUCACUCUCCCAGUUTT against GABRR1: inactive: 0.286.
The same measure for GCAGAAUACCUGUUUCAAATT against TERF1: inactive: 0.0114; for GCAUCAACUUUGUGCAUGATT against PLTP: active: 1.09.
With GAAUUACGAUCACAAAGUUTT against KRR1, the median seed-adjusted z-score is inactive: -0.0353.
Consider CAUCAUUGCUUAAUCAACATT against ZNF267, for which the median seed-adjusted z-score was inactive: 0.381.
As for GGCUUAAUAUUCAAGCUGATT against CCL1, the median seed-adjusted z-score is inactive: 0.537.
Consider GGAUUAUCUUGACAGUAUUTT against HSF2, for which the median seed-adjusted z-score is inactive: -0.0228.
For GAAGGAAGGGUAAGGGAAATT against NFKBIL1, the median seed-adjusted z-score is inactive: 0.282.
Turning to GGGUUGCAGUUAACACUGUTT against MOBKL1A, the median seed-adjusted z-score was inactive: 0.549.
With CCACUUUUGAGGACAGAGATT against CLCN4, the median seed-adjusted z-score is inactive: 0.
Consider GAUCCAAUGUAAACGUGGATT against GRLF1, for which the median seed-adjusted z-score was inactive: 0.0307.
Turning to GCAUAACUGUAGACUACAATT against ADAM32, the median seed-adjusted z-score is active: 1.75.
